# Experimental data published in patent EP2535710A1, “Method for determining the immune toxicity of a compound in vitro” (Rijksinstituut Voor Volksgezondheid En Milieu, priority 2011, dated 2012).
# For at least one compound, name, drawing or mass did not settle the structure.
# Tests used:
# Test in all cases: Phosphoproteome analysis of TBTO-treated cells (phosphoprotein and TiO2 phosphopeptide enrichment, nano-LC/MS/MS)
# Type in all cases: cell-based, Murine
# [1] = tested on: Matrin-3; conditions: EL4 cells, 0.5 µM TBTO, 6 hr
# [2] = tested on: RPS6KB1; conditions: EL4 cells, 0.5 µM TBTO, 6 hr
# [3] = tested on: DPYSL2; conditions: EL4 cells, 0.5 µM TBTO, 6 hr
# [4] = tested on: MAPK1; conditions: EL4 cells, 0.5 µM TBTO, 6 hr
# Method: Murine EL4 cells were cultured as described before.
# After exposure, cell suspensions were centrifuged at 1200 rpm for 10 min at 4 °C and the pellets were washed in 20 mL phosphate-buffered saline (PBS, pH 7.2) and centrifuged again. This procedure was repeated twice. The obtained cell pellet of each sample or control was then suspended in 5 mL of phosphoprotein lysis buffer prepared following the instructions of Phosphoprotein Purification Kit (Qiagen). This volume of the lysis buffer contained, in addition to the detergent CHAPS and Benzonase (10 µL), one tablet of protease inhibitor and Phosphatase Inhibitor Cocktail 1 (10 µL). The cell suspension was incubated on ice for 30 min and vortexed briefly and gently every 10 min. After that, the cell lysate was centrifuged at 10.000 rpm for 30 min at 4 °C. The supernatant was then taken and protein concentration determined according to Bradford. A total amount of 2.5 mg protein, at the concentration of 0.1 mg/mL, was loaded on the affinity column, which was pre-equilibrated with lysis buffer as recommended by the manufacturer. The chromatography was performed at room temperature. After the column was washed with the remaining lysis buffer, the enriched bound fractions of phosphoproteins were eluted using the phosphoprotein elution buffer, accompanying the Kit. These enriched fractions were combined and the protein concentration was determined. The combined fractions were dialyzed to remove CHAPS and concentrated using Amicon Ultra 0. 5mL, 3K cut off. The Ultra-filtrate was reduced to circa 50 µL and used for electrophoresis.
# Electrophoresis of the samples was performed essentially as described in detail before. Briefly, 80 µg of protein was loaded per well of a 10% NU-PAGE-Tris-gel and run at 160 V for 90 min. After that, the gel was rinsed 3 times with deionized water (5 min each time), followed by staining it with Coomassie (Simply Blue Safe Stain) for 2 hrs. The gel lanes of sample and control were horizontally cut into 14 fractions. Each gel slice was cut into pieces and put into a 1.5 mL eppendorf tube.
# The obtained fractions were destained, dehydrated, reduced with DTT and alkylated with Iodoacetamide as described before. The fractions were digested with trypsin and incubated for 17 hr. After that, to each fraction 30 µL of ammonium bicarbonate buffer was added and incubated for additional 2 hr. The supernatant of each fraction was put into an eppendorf tube and subsequently 25 µL of 50% ethanol containing 5% formic acid was added to each fraction, mixed and pooled it to the previous one. This process was repeated once. The obtained fractions were freeze-dried by Speed-Vac, suspended in 60 µL acetonitrile and again freeze-dried. Finally, the peptide fractions were suspended in 50 µL solution of 0.5% formic acid/2% acetonitrile and used for phosphopeptide enrichment.
# Phosphopeptides were enriched from peptide mixture obtained as described above using titanium dioxide MonoTip Tio pipette tips. Essentially, the operation protocol of the manufacturer was followed with slight modification. The Monotip Tio was preconditioned with 100% acetonitrile and this process was repeated twice. Next, the tip was conditioned with 0.2 M phosphate buffer, pH 7.0 and equilibrated with 50% aqueous acetonitrile solution containing 0.1% formic acid, repeating this step thrice. After that, peptide fraction was drawn and ejected. This adsorption process was repeated 25 cycles per fraction, after which the tip was rinsed with 30% aqueous acetonitrile containing 0.1 % formic acid and 0.1 M KCI. The rinsing process was repeated 6 times per fraction. Finally, the tip was desalted with the equilibration buffer, drawing and ejecting three times, followed by elution with 2% aqueous ammonia. The eluate fractions were freeze-dried, suspended with 60 µL of 100% acetonitrile per fraction and again freeze-dried. […]
# [5] = tested on: ACACA1; conditions: EL4 cells, 0.5 µM TBTO, 6 hr
# [6] = tested on: Rrm2; conditions: phosphopeptide R.[…]pSPLKR.L, phosphorylation site S20; EL4 cells, 0.5 µM TBTO, 6 hr
structure (smiles),measurement,setting,value
"CCC[CH2][Sn]([CH2]CCC)([CH2]CCC)[O][Sn]([CH2]CCC)([CH2]CCC)[CH2]CCC [TBTO, tributyltin oxide]",Present in treated cells,"[1]; phosphopeptide K.IKNpYILMRMXK.S, phosphorylation site Y526",-
same,Present in treated cells,"[1]; phosphopeptide R.RDp[…].S, phosphorylation site S188",-
same,Present in treated cells,"[1]; phosphopeptide R.Sp[…].S, phosphorylation site Y597",-
same,Present in treated cells,"[1]; phosphopeptide R.TEEGPTLpSpYGRDGR.S, phosphorylation sites S157, Y158",-
same,Present in treated cells,"[1]; phosphopeptide R.p[…].S, phosphorylation site S596",-
same,Present in treated cells,"[2]; phosphopeptide R.TPVSPVKFpSPGDFWGR.G, phosphorylation site S452",-
same,Present in treated cells,"[2]; phosphopeptide R.p[…].G, phosphorylation site T444",-
same,Present in treated cells,"[3]; phosphopeptide K.TVTPASSAKpTSPAK.Q, phosphorylation site T521",+
same,Present in treated cells,"[3]; phosphopeptide K.TVTPASpSAKTSPAK.Q, phosphorylation site S518",+
same,Present in treated cells,"[3]; phosphopeptide K.TVTPApSSAKTSPAK.Q, phosphorylation site S517",+
same,Present in treated cells,"[3]; phosphopeptide K.p[…].Q, phosphorylation site T514",+
same,Present in treated cells,"[4]; phosphopeptide R.VADPDHDHpTGFLTEpYVATR.W, phosphorylation sites T179, Y185",-
same,Present in treated cells,"[4]; phosphopeptide R.[…]pTEYVATR.W, phosphorylation site T183",-
same,Present in treated cells,"[4]; phosphopeptide R.[…]pTEYVApTR.W, phosphorylation sites T183, T188",-
same,Present in treated cells,"[4]; phosphopeptide R.[…]pTEpYVATR.W, phosphorylation sites T183, Y185",-
same,Present in treated cells,"[4]; phosphopeptide R.[…]pYVATR.W, phosphorylation site Y185",-
same,Present in treated cells,"[4]; phosphopeptide R.[…]pYVApTR.W, phosphorylation sites Y185, T188",-
same,Present in treated cells,"[5]; phosphopeptide R.SSMpSGLHLVK.Q, phosphorylation site S79",+
same,Present in treated cells,"[5]; phosphopeptide R.SpSMSGLHLVK.Q, phosphorylation site S77",+
same,Present in treated cells,"[5]; phosphopeptide R.p[…].Q, phosphorylation site S76",+
same,Present in treated cells,[6],-
